Data published in publication doi:10.1101/2020.03.06.980961.
Results are given in words; binding and its absence hold for the method and conditions named. For some of these results: Binding calls can cover weak binding; strength is not graded here. Tags and fused reporters may be left off the sequences shown.

How the values were obtained:
[1] = biological target: T1, Mtf1-WT (Mitochondrial Transcription Factor 1), His-tagged (Saccharomyces cerevisiae) (UniProt P14908); test: ultrafiltration
T1 sequence: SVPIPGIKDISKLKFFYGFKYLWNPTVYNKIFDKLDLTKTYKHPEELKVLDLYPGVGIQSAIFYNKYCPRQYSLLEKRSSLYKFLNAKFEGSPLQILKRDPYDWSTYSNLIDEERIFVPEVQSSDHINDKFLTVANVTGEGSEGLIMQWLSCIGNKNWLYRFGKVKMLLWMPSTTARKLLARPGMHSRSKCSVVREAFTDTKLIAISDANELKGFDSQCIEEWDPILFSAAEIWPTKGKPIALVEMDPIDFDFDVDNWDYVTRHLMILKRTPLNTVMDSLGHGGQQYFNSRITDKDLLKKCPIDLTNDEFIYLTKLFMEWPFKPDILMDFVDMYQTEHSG

[2] = biological target: T2, Mtf1-Δ20, His-tagged (Saccharomyces cerevisiae) (UniProt P14908); test: ultrafiltration
T2 sequence: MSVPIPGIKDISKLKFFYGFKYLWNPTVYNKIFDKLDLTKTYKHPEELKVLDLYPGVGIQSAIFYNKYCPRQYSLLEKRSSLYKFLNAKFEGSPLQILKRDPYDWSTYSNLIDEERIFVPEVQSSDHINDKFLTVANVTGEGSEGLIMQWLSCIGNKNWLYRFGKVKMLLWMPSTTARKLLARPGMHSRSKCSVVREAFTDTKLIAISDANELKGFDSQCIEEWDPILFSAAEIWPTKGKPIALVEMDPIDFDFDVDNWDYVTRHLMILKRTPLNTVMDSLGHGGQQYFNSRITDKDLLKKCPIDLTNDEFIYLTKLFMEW

[3] = biological target: T1, Mtf1-WT (Mitochondrial Transcription Factor 1), His-tagged (Saccharomyces cerevisiae); test: BLI
[4] = biological target: T2, Mtf1-Δ20, His-tagged (Saccharomyces cerevisiae); test: BLI

## Rpo41, core subunit of the Saccharomyces cerevisiae mitochondrial RNA polymerase (enzyme)
[1]
  binding: binds
[2]
  binding: no binding (tested: 2 µM each)
[3]
  binding: binds
[4]
  binding: binds weakly
